The values below come from PMC4426700.

These are yes or no findings as the source states them, for the method shown. Binding seen in cells or lysates may run through a third protein. Some results given as binding are weak or reduced against the parent protein; the word gives no strength.

For the experiment, the target named is p53 (human (endogenous in human stomach cancer cell lines)) (UniProt P04637). As to the kind of experiment: co-IP; cell lysate immunoprecipitated with p53 antibody; YBX1 found in the precipitate; cell line and conditions not stated.

As to “Y-box binding protein 1 (from UniProt P67809 1-324)”, the binding entry is recorded as “binds”.
